The whole screen tested about 31,000 sequences, of which about 1,400 (4.5%) were called active.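 Rule for the calls: active = median seed-adjusted z-score above 1 or below -1; inactive = the rest.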 The list shows a part of the results.

The nature of this assay: Novel Modifiers of Survival Motor Neuron (SMN) Protein: Gene Identification via Genome-wide siRNA Screen.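 Note: luminescence tracks full-length SMN protein made from the SMN2 reporter.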 Particulars: HEK293T SMN2-luciferase reporter, siRNA knockdown, 72 h; actives lie on both sides. In a few lines:
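Each of three siRNAs per gene is reverse-transfected (1 pmol) into reporter HEK293T cells whose luciferase output tracks SMN protein level. After 72 h culture, ONE-Glo luminescence is control-normalized, log10-transformed and MAD-standardized; Common Seed Analysis deprioritizes seed-driven hits.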
Regarding GCCUCUUCUUCAACCGCGATT against SLC19A1, the median seed-adjusted z-score was inactive: 0.

In the case of CUGUCUGCGGGUUCUUUUATT against NAT14, the median seed-adjusted z-score was inactive: -0.283.

For the sequence GAUCUGGUCGAGUUUAAAATT against NAT2, the median seed-adjusted z-score is inactive: -0.0495.

Turning to GGCCCAGAAUCGAAUCCAATT against MST1R, the median seed-adjusted z-score was inactive: -0.278.

On to GCAGCUACCUGAGUGUCAATT against ALX4, for which the median seed-adjusted z-score is inactive: -0.121.

Regarding GUAUAUCAGGGAAUUAGGATT against UROS, the median seed-adjusted z-score was inactive: -0.248.

As to GCUACUUCUCAGUUGCUAATT against NDST4, the median seed-adjusted z-score was inactive: 0.426.

In the case of GAAUGGAGCCCAAACAGAUTT against ACOT8, the median seed-adjusted z-score is inactive: 0.0643.

As to ACAUUGAGGUGAUGAGGUUTT against PPP1R12C, the median seed-adjusted z-score was inactive: -0.535.

As for GCAAUGGGAUACUAAGCUATT against PCDHAC1, the median seed-adjusted z-score was inactive: -0.189.

Regarding GACUGGUACCUCUUAAUCATT against HEATR6, the median seed-adjusted z-score was inactive: 0.

Consider CCACUAAUGCAGAUCCUGUTT against CP, for which the median seed-adjusted z-score is inactive: 0.188.

For GAGAGUACAUCGCACUGUATT against GOLGA2L1, the median seed-adjusted z-score was inactive: 0.487.

As to GAGUCGCACUUCUCCAGUATT against KCNA1, the median seed-adjusted z-score is inactive: -0.277.

GGCACGCGCUCUCAAUGAATT against ZC3H7B: the median seed-adjusted z-score is inactive: -0.093.

Turning to GCCCUUCUCCUGUAGCCUUTT against ZBTB32, the median seed-adjusted z-score is inactive: 0.458.

As to GCCUGAACGAGAAGGAUGATT against CHRNB1, the median seed-adjusted z-score is inactive: 0.16.

Take GGAAGUGAGUCAUCACAAATT against EIF4B: the median seed-adjusted z-score was inactive: -0.374.

For GGCUUGGGCUAGUAAGGAUTT against MCM7, the median seed-adjusted z-score was inactive: 0.0993.

Consider GGGUCUGGACUAUAGUGUATT against CASP4, for which the median seed-adjusted z-score was inactive: -0.564.

As for GAACUGUCAAAUGCACGUATT against TRIP11, the median seed-adjusted z-score was inactive: 0.333.

As to CCAUUGAUGGAGUCAGAUUTT against POLD2, the median seed-adjusted z-score is inactive: 0.97.

CGCGAGAUCCAGUACGUCATT against ATF5: the median seed-adjusted z-score was inactive: 0.233.

With GGUGCGGUCCAUUAAUUGATT against TARSL2, the median seed-adjusted z-score was inactive: 0.361.

Take GCUGUGAAACGGACAUUGATT against NELL2: the median seed-adjusted z-score is inactive: 0.0918.

As for GAUGUCCUCGAGAUACUAATT against HAO1, the median seed-adjusted z-score was inactive: 0.421.

For the sequence CGGCUGAGCGAGAAAAAGATT against ICAM4, the median seed-adjusted z-score is inactive: -0.338.

As to GCAUGGUUCAAACGAAGGATT against PTPN20B, the median seed-adjusted z-score is inactive: -0.62.

With CCAACUGUGUGGCAGAACGTT against FKBP9L, the median seed-adjusted z-score was inactive: 0.666.

Take GUUAUCCUCUAAUUGAUAATT against B3GALNT1: the median seed-adjusted z-score was inactive: 0.128.

Take CCUCAAUGAUGUUGUCAAATT against VPS26B: the median seed-adjusted z-score is inactive: -0.038.

Turning to GGGAUACAUUUAAGCGCAATT against SYTL2, the median seed-adjusted z-score was inactive: 0.211.

In the case of AGACAGGAAGAGCUCAAUATT against MYL3, the median seed-adjusted z-score was inactive: 0.212.

For the sequence GGAUGGGUAUGGUCAAGAUTT against CPT1A, the median seed-adjusted z-score was inactive: 0.129.

Turning to GGAAGGUGAUGACCGUCUATT against CIT, the median seed-adjusted z-score is inactive: -0.0585.

Regarding UGACUUCGACUAUCUCAAATT against AKT2, the median seed-adjusted z-score is inactive: 0.

Turning to GACCUUCCUAGUUUCCUGATT against GIPC1, the median seed-adjusted z-score is inactive: 0.

As for CCACCGUGAUUCAUCUUCUTT against CALML3, the median seed-adjusted z-score was inactive: 0.

GAUUGUGACUUUACAACUATT against ZNF711: the median seed-adjusted z-score was inactive: 0.254.

Turning to UGCUGCCUAUGGUCAGAUATT against BRUNOL4, the median seed-adjusted z-score was inactive: 0.

Take GGUGGACUCGGUGAAGACATT against SLC25A37: the median seed-adjusted z-score is inactive: -0.0821.

For GGAUUAUCUGUUCUCCGUUTT against SCN1A, the median seed-adjusted z-score is inactive: 0.031.

GCAACAUCGUGGAUAAGUUTT against CDC25B: the median seed-adjusted z-score is inactive: -0.0158.

Consider GGAUCAAUACAAAUACUAATT against ELTD1, for which the median seed-adjusted z-score was inactive: 0.387.

On to GGCUGUCUGCUGUACGAGATT against NEK6, for which the median seed-adjusted z-score is inactive: -0.674.

For the sequence GUAUAGUCCAGACAAUUAUTT against RSHL3, the median seed-adjusted z-score is inactive: -0.407.

Regarding GGGUGAAGCUGUCAGACUUTT against PAK4, the median seed-adjusted z-score was inactive: -0.742.

Regarding CCCUGUUAGUAACGGCAAATT against OBFC2B, the median seed-adjusted z-score is inactive: -0.061.

Consider GUUCCUCACUUAUCGCUAUTT against ADAMTSL3, for which the median seed-adjusted z-score is inactive: -0.0419.

Take GCAGAAACAGACUAUCGAATT against SLK: the median seed-adjusted z-score is inactive: 0.0479.

For the sequence CGACCUUCUGCGACUAUUUTT against PPP1CA, the median seed-adjusted z-score is inactive: 0.115.

For GCUUUACAUGGUUUUCGAATT against CASK, the median seed-adjusted z-score was inactive: -0.422.

As for CCUGGAUCAUGCAAGAUUATT against MELK, the median seed-adjusted z-score is inactive: -0.195.

As for CCACAUCCUGGAAAACGAATT against GPR112, the median seed-adjusted z-score was inactive: 0.

With CAUCGUUACUGUCAGAAGATT against DAXX, the median seed-adjusted z-score was inactive: 0.349.

Take CCUUUUUGCUGGACACUGUTT against PLEKHF1: the median seed-adjusted z-score was inactive: 0.055.

GUGUGGUAGCUAUUGACAATT against TSC22D1: the median seed-adjusted z-score is inactive: 0.

Take GAAACCAUUUUAUCUGGUATT against BCS1L: the median seed-adjusted z-score was inactive: 0.167.

For GGACACUGUUGACCCAAAATT against P4HA3, the median seed-adjusted z-score was inactive: 0.

For CCGUUACUGCAUCACCAAATT against MOV10, the median seed-adjusted z-score is inactive: 0.0759.

CAGGCAAAGUUCGACAGUATT against HEPH: the median seed-adjusted z-score is inactive: -0.293.

CAGCAGCUUUGUGACACCATT against GPR146: the median seed-adjusted z-score is inactive: 0.405.

Take CUGAAUUAGUUACUGCUUUTT against SLC24A5: the median seed-adjusted z-score is inactive: -0.166.

Turning to GCAUCAUCCUCCUAUCAGATT against DFFA, the median seed-adjusted z-score was inactive: -0.494.

For the sequence GAUCAUUUCGAGAGAUGUATT against CRLS1, the median seed-adjusted z-score was inactive: 0.555.

Consider GGCCUUUAUCGUCCUCUUUTT against LPCAT4, for which the median seed-adjusted z-score is inactive: 0.338.

As to UGAUCAAGAUCAUUCAGCATT against PIP5KL1, the median seed-adjusted z-score was inactive: -0.819.

On to CCGUGGAUGUUGUUGCUAUTT against WDR36, for which the median seed-adjusted z-score is inactive: 0.00836.

GUACAGUAAUUAGCCGAAATT against DCAKD: the median seed-adjusted z-score was inactive: 0.0872.

As for GGAAUUCGAAGACUAAUUATT against TWF1, the median seed-adjusted z-score is inactive: -0.171.

On to CAUUAUUCCUUCCAAACAATT against SGK3, for which the median seed-adjusted z-score is inactive: 0.178.

Turning to GGAUCGAUAAGUUCCGUUUTT against EPHX1, the median seed-adjusted z-score is inactive: 0.

In the case of GCCUUUACCCUUGAAGAAATT against ME3, the median seed-adjusted z-score is inactive: 0.166.

As for GAAAUGGGCCGGAAACGAATT against CPSF3L, the median seed-adjusted z-score was inactive: -0.385.

Turning to CCGGUGACAUGAAAGAACUTT against SLC14A1, the median seed-adjusted z-score was inactive: -0.0585.

As for CUCUAACCGUGGUUCCAGATT against SUPT16H, the median seed-adjusted z-score was active: 1.2.

In the case of GGCUACUACUUAUACUGGATT against PLCB2, the median seed-adjusted z-score was inactive: 0.0845.

On to GGAAGAUUCUUUAUGGGUATT against ACAA2, for which the median seed-adjusted z-score is inactive: 0.435.

For the sequence CGACAUAACUAUGUUCGGATT against ETF1, the median seed-adjusted z-score is active: -1.12.

CCAUUGACUGUAACUGCAATT against ZNF239: the median seed-adjusted z-score is inactive: -0.191.

Take GUAUGGUACUAUGAAGUAATT against RSPRY1: the median seed-adjusted z-score was inactive: 0.0814.

On to CUAACUCCACCGAACGAUATT against B3GNTL1, for which the median seed-adjusted z-score is inactive: 0.

For GUACUAGAGAAAUCAAUAATT against RAD54B, the median seed-adjusted z-score was inactive: -0.257.

Take CAUGAUCAAUGGAACUUCUTT against SCARB1: the median seed-adjusted z-score was inactive: 0.0715.

For GUCGAGUUGUAUCGCAUUATT against COX4I1, the median seed-adjusted z-score is inactive: -0.39.

Turning to CCUGCUGAAUCUCACGGAATT against HOXD3, the median seed-adjusted z-score was inactive: 0.233.

In the case of GAAGCGGUAUAAUCGAGAATT against GDPD1, the median seed-adjusted z-score was inactive: 0.527.

For the sequence CACCAGUUGUUGUACAGCATT against NUP155, the median seed-adjusted z-score is inactive: 0.141.

Regarding CCUCGGCCGUCAUGAAGAATT against RUNX3, the median seed-adjusted z-score was inactive: -0.489.

With AUACUACGUUGAUUACAAATT against LRRTM1, the median seed-adjusted z-score was inactive: -0.528.

With CCAGGCUUCUUUUGCAGGATT against PMVK, the median seed-adjusted z-score was inactive: 0.269.

With GAGUUCUAUUAAGACGGUUTT against PDZD8, the median seed-adjusted z-score is inactive: 0.0582.

In the case of CUAUCUAUGACCAAACCUATT against THBS2, the median seed-adjusted z-score was inactive: -0.721.

As to GAUUCAGGGCUUAAACGUATT against PEG3, the median seed-adjusted z-score is inactive: 0.5.

In the case of CCGACUUCCAGUUCAAGGATT against HCCA2, the median seed-adjusted z-score is inactive: 0.862.

As for CAUCUUGCCUCAUAGAACATT against LOC91431, the median seed-adjusted z-score was inactive: 0.0402.

As to CAAUAUAGUAGAGAUGAAATT against DDAH1, the median seed-adjusted z-score is inactive: 0.138.

CAGCUGUUCUCAUAUGCUATT against ATP5G3: the median seed-adjusted z-score was inactive: 0.

Consider GAUUAUAUUUGUCCAGCUATT against ESR2, for which the median seed-adjusted z-score is active: -1.1.

Consider AGAUGGUCCAAGAUCCAGATT against CHRM4, for which the median seed-adjusted z-score is inactive: -0.856.

As to GGAUCAGUUGAGUCGUUUATT against SCYL2, the median seed-adjusted z-score is inactive: -0.0652.

Turning to CCAGGAAAAAUCAAACGUATT against RCL1, the median seed-adjusted z-score was inactive: 0.0807.

With CAUGCAACCCUGAGAGCAATT against UNQ2541, the median seed-adjusted z-score is inactive: -0.954.

As for GGAUUUGGGUAAAGUCACATT against ZNF483, the median seed-adjusted z-score was inactive: 0.

With CCUUAAUCCUUUGUUAACATT against KPNA6, the median seed-adjusted z-score was active: -1.54.

Consider GGUCCAGAUCUACAACCCATT against ST3GAL2, for which the median seed-adjusted z-score is inactive: -0.139.

GAGACAGAGUGUCAGAGUATT against TRPT1: the median seed-adjusted z-score was inactive: -0.671.

Consider CCCUACCUUUGGUGGAAAATT against ELOVL1, for which the median seed-adjusted z-score was inactive: 0.564.
